Experimental data: PubChem BioAssay AID1159584 (Peter MacCallum Cancer Centre, 2016)
This is a random part of about 18,000 deposited reagents. Further read-outs or replicates are left out here. The record does not give: the amount of reagent, the time to read-out.

Test: 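Knock-downs that harm CDH1-null cells more than parental MCF10A cells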 (primary screen)
Cell system: human MCF10A breast epithelial cells, parental and CDH1-null
Reagents: siRNA against human genes
Read-out: 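Cell viability by CellTiter-Glo ATP luminescence, each line scaled to the mean of mock wells across plates, then CDH1-null over parental ratio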
Scale: CDH1-null / parental viability ratio: higher = CDH1-null cells survive relatively better than parental

gene,CDH1-null / parental viability ratio
TECPR1,0.98
LOC155060,0.75
HINT1,1.1
KIAA1586,1.22
MITF,0.91
FASN,0.87
ESR2,1.23
GTSF1,0.92
RAB32,1
FAM204A,1.4
MBNL1,1.56
DMAC2L,0.62
KLHL7,1.14
FUOM,0.88
SENP1,1.23
KRTAP15-1,1.18
PITX2,1.11
MRPS18B,1.02
EEF1AKMT2,0.82
MID1,0.96
YIPF1,0.94
IL23A,0.88
ZNF75A,1.18
PPP6R2,1.03
SYCN,1.34
MGST2,1
SAP30,1.01
ZAR1,1.11
HSD17B14,0.74
SP3,1.18
ZDHHC6,1.42
CPTP,0.89
LINC03040,0.89
TMT1A,0.68
ULBP2,1
ISOC1,0.85
SUV39H1,1.02
DNAJC18,0.95
GFI1B,1.02
FBXO34,0.99
MED4,0.95
PAQR8,1.09
PERP,1.84
NSD2,1.01
TP53INP1,1.25
PEMT,0.99
CYTL1,1.02
CLEC2B,0.87
CRHR1,0.93
ZNF792,0.8
CCDC87,1.04
MRPS11,1.04
RIBC2,0.87
C10orf67,1.24
GCSAML,1.08
MRPL20,0.83
CMTM8,0.96
DUSP7,1.34
ETFRF1,1.12
LHFPL3,1.2
PSMC1,0.94
SPTLC3,1.03
TFB2M,1.17
TCEAL2,0.76
DZANK1,1.12
DAZ2,0.84
KIF11,1.34
ZC2HC1C,1.08
